Assay results from PubChem BioAssay AID504467 (National Center for Advancing Translational Sciences (NCATS), 2011).
The whole screen tested about 330,000 compounds, of which about 7,700 (2.3%) were called active. The shares of active, inactive and inconclusive entries below differ from those in the screen. Calls follow the shape of the dose curve; as a rule, active = well fitted inhibition curve with a large enough effect; inconclusive = small, poorly fitted or top-dose-only effect, or effect the other way; inactive = flat fitted curve, though single readings scatter. A potency beside an inconclusive call is a rough fit, not a confirmed value.

experiment: qHTS screen for small molecules that inhibit ELG1-dependent DNA repair in human embryonic kidney (HEK293T) cells expressing luciferase-tagged ELG1; settings: HEK293T ELG1-luciferase reporter, luminescence, 16 h, DNA damage induced by 5-fluorouridine; activity change, negative = inhibition: at 46.1 µM (top of the series); also: nearly all actives have a fitted effect of over 55% in size
How it was run: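 Reporter activity after DNA damage by 5-fluorouridine is monitored. Compound-treated cells incubate 16 hr at 37 °C, then ONE-Glo is added for 30 min before luminescence reading.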
% is scaled to controls: 0 for no effect and ±100 for the full control effect; potency is read from the fitted curve at half-maximal effect.

SMILES | Potency | activity change, negative = inhibition
Nc1nc(-c2ccccc2)cn1N | inconclusive: 23.1 µM [activator, single point] | 
COC(=O)c1ccc(COC(=O)c2[nH]c(C)c(C(C)=O)c2C)o1 | inconclusive: 9.2 µM [inhibitor, partial curve] | 
CSCCOC(=O)COc1ccc(/C=N/NC(=O)c2nn(C)cc2Cl)cc1 | inconclusive: 25.9 µM [activator, single point] | 
Cc1cccc(C)c1NC(=O)CN(C)C(=O)c1cccc(S(=O)(=O)N2CCN(c3ccccc3)CC2)c1 | inconclusive: 23.1 µM [inhibitor, partial curve] | 
CC(Sc1nnc(-c2ccccc2)c(-c2ccccc2)n1)C(=O)N1CCc2ccccc21 (stereo not drawn) |  | inactive: -2.54%
CCOC(=O)c1c(NC(=O)CSc2nc3ccccc3s2)sc(C)c1C |  | inactive: -3.86%
Fc1ccc(COc2cccc(-c3n[nH]c(=S)o3)c2)cc1 | inconclusive: 20.6 µM [inhibitor, partial curve, poor fit] | 
CS(=O)(=O)NCc1nnc(SCc2ccc(C(F)(F)F)cc2)o1 |  | inactive: 7.47%
O=S(=O)(c1ccccc1)N1CCC(O)(CSc2ccc(F)cc2)CC1 | inconclusive: 2.91 µM [inhibitor, full curve] | 
O=C(CCc1ccccc1)Nc1ccc(N2CCOCC2)cc1 | inconclusive: 23.1 µM [activator, single point] | 
CC(C)CC1NC(=O)N(CC(=O)N2c3ccccc3NC(=O)C2(C)C)C1=O (stereo not drawn) |  | inactive: -11.7%
O=C(Nc1ccccc1[N+](=O)[O-])c1cc2ccccc2nc1Cl |  | inactive: 13.4%
O=C(COc1ccc(Cl)cc1Cl)NC(=S)N1CCCc2ccccc21 |  | inactive: 0%
O=C(Nc1ccccn1)c1cc(-c2ccc(Cl)s2)nc2ccccc12 | inconclusive: 29.1 µM [inhibitor, single point] | 
O=C(OCc1cccc(F)c1)c1ccc2c(c1)-c1ccccc1C2=O | inconclusive: 2.31 µM [activator, partial curve, poor fit] | 
CCOC(=O)c1ccc(NC(=O)c2c(NC(=O)CCC(=O)O)sc3c2CCCCC3)cc1 | inconclusive: 20.6 µM [activator, single point] | 
CC(=O)c1c(C)[nH]c(C(=O)CN2CCN(S(=O)(=O)c3ccc(C(C)C)cc3)CC2)c1C | inconclusive: 10.3 µM [inhibitor, partial curve, poor fit] | 
Cc1ccc(-c2nn(C)c(=O)c3ccccc23)cc1S(=O)(=O)NCCO | inconclusive: 25.9 µM [activator, partial curve, poor fit] | 
O=P(c1ccccc1)(c1ccccc1)c1nc(-c2ccc(Cl)cc2)oc1N1CCOCC1 | inconclusive: 29.1 µM [inhibitor, single point] | 
O=C(N/N=C/c1ccc2c(c1)OCO2)c1cc2ccccc2o1 | inconclusive: 20.6 µM [activator, partial curve] | 
Cc1cc(C)c2c(CN3CCN(C)CC3)cc(=O)oc2c1 |  | inactive: 2.01%
CCOc1ccc(-n2cc(C(=O)Nc3cccc(Cl)c3)c3cc(OC)c(OC)cc3c2=O)cc1 | inconclusive: 32.6 µM [inhibitor, partial curve, poor fit] | 

Filtered by structure, the entries above with a furan ring, fused or not.
SMILES | Potency | activity change, negative = inhibition
COC(=O)c1ccc(COC(=O)c2[nH]c(C)c(C(C)=O)c2C)o1 | inconclusive: 9.2 µM [inhibitor, partial curve] | 
O=C(N/N=C/c1ccc2c(c1)OCO2)c1cc2ccccc2o1 | inconclusive: 20.6 µM [activator, partial curve] | 

(listing goes on)

SMILES | Potency | activity change, negative = inhibition
O=C(CC1SC(=O)N(c2ccccc2)C1=O)Nc1ccc(Br)cc1 (stereo not drawn) |  | inactive: 0.238%
Cn1c(S(=O)(=O)O)nc2ccccc21 | inconclusive: 14.6 µM [activator, partial curve, poor fit] | 
COc1ccc(NS(=O)(=O)c2ccc3c(c2)NC(=O)C(C)S3)cc1 (stereo not drawn) | inconclusive: 29.1 µM [inhibitor, single point] | 
COC(=O)c1cc(S(=O)(=O)Nc2nn(C)c3cccc(F)c23)oc1C | inconclusive: 23.1 µM [activator, single point] | 
Cc1ccc(NC2=C(N3CCOCC3)C(=O)c3ccccc3C2=O)cc1 | inconclusive: 5.17 µM [activator, partial curve, poor fit] | 
Cc1cc(NC(=O)c2cccc(F)c2)no1 | inconclusive: 14.6 µM [activator, partial curve] | 
Cc1ccc2c(CN3CCN(CCO)CC3)cc(=O)oc2c1 |  | inactive: 13.1%
O=C(CCC(=O)c1ccc(Oc2ccccc2)cc1)Nc1cccc(Cl)c1 |  | inactive: 18.9%
CC[C@]12c3[nH]c4cc(CCC(=O)N(C)C)ccc4c3CCN1C(=O)[C@@H](CC(=O)NCCCN(C)C)C[C@@H]2C(=O)N1CCN(C(=O)c2ccco2)CC1 | inconclusive: 25.9 µM [activator, single point] | 
COc1ccccc1CNC(=O)C1CC(c2ccccc2F)=NO1 (stereo not drawn) | inconclusive: 20.6 µM [activator, single point] | 
C[C@@H](C(=O)NC1CCCCC1)N1C(=O)N2CCc3c([nH]c4ccccc34)[C@@]2(C)C1=O | inconclusive: 0.058 µM [inhibitor, full curve, poor fit] | 
COc1ccc(-c2csc3ncn(CC(=O)N4CCOCC4)c(=O)c23)cc1 |  | inactive: -8.25%
O=C(Cn1cnc2ccccc2c1=O)NNC(=O)c1ccccc1F | inconclusive: 20.6 µM [activator, partial curve, poor fit] | 
O=C(O)c1ccc(/C=C(\c2nc3ccccc3[nH]2)c2nc3ccccc3s2)cc1 | inconclusive: 29.1 µM [inhibitor, partial curve, poor fit] | 
CCOC(=O)c1cc(-c2ccccc2)sc1NC(=O)c1ccc(OC)cc1 |  | inactive: 11.3%
CC(=O)c1c(C)[nH]c(C(=O)OCC(=O)Nc2ccccc2Cl)c1C | active: 8.2 µM | 
C/C(=N\NC(=O)c1c([N+](=O)[O-])c(C)nn1C)c1ccc(NC(=O)C2CCCC2)cc1 | inconclusive: 6.51 µM [activator, partial curve, poor fit] | 
O=C(NCC(=O)N1CCN(S(=O)(=O)c2ccccc2)CC1)c1ccc2ccccc2c1 | inconclusive: 29.1 µM [inhibitor, single point] | 
CCOc1nc(S(=O)(=O)c2ccc(C)cc2)c(Cl)s1 | inconclusive: 29.1 µM [inhibitor, single point] | 
O/N=C1/CC/C(=N\O)c2nn(-c3ccccc3)nc21 |  | inactive: -6.85%
Cc1cccc(N2CCN(Cc3cn(C)nc3-c3ccccc3F)CC2)n1 |  | inactive: -1.28%
